According to US20090274698A1, “Combination anti-cancer therapy” (priority 2007, published 2009):
For at least one compound, name, drawing or mass did not settle the structure.

Key:
Ovcar-5 cells = experiment: Apoptosis in Ovcar-5 cells with chemotherapeutic agents (FIG. 13); format: cell-based, human; conditions: combination with paclitaxel, cisplatin, irinotecan, doxorubicin, gemcitabine, 5-FU or melphalan
[1] = tested on: pAkt (Ser 473) in MDA-MB-231 tumor cells; experiment: Western blot of pAkt (Ser 473) in MDA-MB-231 tumor cells
[2] = tested on: pAkt (serine 473) in ovarian tumor cells; experiment: Western blot of pAkt (serine 473) in ovarian cell lines, gemcitabine study (FIG. 11A); format: cell-based, human; conditions: 24 hours
[3] = tested on: pAkt (Ser 473) in Ovcar3 cells; experiment: Western blot of pAkt (Ser 473) in Ovcar3 cells (FIG. 9, 10); format: cell-based, human
Excerpt: FIG. 9. Compound B inhibits irinotecan-induced Akt phosphorylation and enhances irinotecan-induced apoptosis in ovarian tumor cells. […] Phospho-Akt was detected using an antoibody specific to Serine 473. […] Apoptosis is expressed as the fold increase in induction relative to DMSO-treated cells.
FIG. 10. Compound B inhibits doxorubicin-induced Akt phosphorylation and enhances doxorubicin-induced apoptosis in ovarian tumor cells. […] Phospho-Akt was detected using an antibody specific to Serine 473. […] Apoptosis is expressed as the fold increase in induction relative to DMSO-treated cells.

Ovcar3 cells = experiment: Apoptosis (caspase 3/7) in Ovcar3 cells (FIG. 9, 10, 12); format: cell-based, human
[4] = tested on: pAkt-S473 in ovarian carcinoma cell lines (Ovcar3, SKov3, MDAH 2774, CaOV3); experiment: Western blot of phospho-Akt(S473) in ovarian carcinoma cell lines, cisplatin study (FIG. 8); conditions: 24 hours
pAkt = experiment: Western blot of pAkt in a panel of cell lines from various tumor types; format: cell-based, human; conditions: Table 2
[5] = tested on: ovarian carcinoma cell lines; experiment: Apoptosis (caspase 3/7) in multiple ovarian carcinoma cell lines, gemcitabine study (FIG. 11B, C); format: cell-based, human; conditions: gemcitabine 1 μM with Compound B 10 μM or rapamycin 10 nM, 48 hrs
MDA-MB-231 cells = experiment: Apoptosis (Caspase 3/7 Glo) in MDA-MB-231 cells; format: cell-based, human; conditions: Caspase 3/7 activity
Method: Apoptosis was measured 24 hrs after treatment. […] Measurements were made 24 hours after treatments, and apoptosis was evaluated by fold induction in Caspase 3/7 activity.

For `CO[C@H]1C[C@@H]2CC[C@@H](C)[C@@](O)(O2)C(=O)C(=O)N2CCCC[C@H]2C(=O)O[C@H]([C@H](C)C[C@@H]2CC[C@@H](O)[C@H](OC)C2)CC(=O)[C@H](C)/C=C(\C)[C@@H](O)[C@@H](OC)C(=O)[C@H](C)C[C@H](C)/C=C/C=C/C=C/1C` [Rapamycin], the “effect on chemotherapy-induced apoptosis” value (Ovcar-5 cells) was “inhibited chemotherapy-induced apoptosis”, the “effect on pAkt-S473, single agent” value ([1]; MDA-MB-231, 24 hours) was “promotes an increase in pAkt-S473” and the “effect on the increase in Akt phosphorylation provoked by doxorubicin” value ([1]; MDA-MB-231, combination with doxorubicin, 24 hours) was “not”. For the same molecule, the “effect on pAkt levels in combination with gemcitabine” value ([2]; multiple ovarian cell lines, gemcitabine 1 μM with Compound B 10 μM or rapamycin 10 nM) was “maintains high pAkt levels”, the “effect on Akt phosphorylation (serine 473), single agent” value ([2]; ovarian cells, gemcitabine 1 μM, Compound B 10 μM, rapamycin 10 nM) was “does not inhibit pAkt levels” and the “effect on pAkt levels in combination with doxorubicin” value ([3]; Ovcar3, 10 μM doxorubicin, 10 μM Compound B or 10 nM rapamycin, 24 hours) was “maintains high pAkt levels”. The “effect on pAkt levels in combination with irinotecan” value ([3]; Ovcar3, 10 μM irinotecan, 10 μM Compound B or 10 nM rapamycin, 24 hours) was “maintains high pAkt levels”, the “effect on pAkt levels, single agent” value ([3]; Ovcar3, 24 hours, 10 nM rapamycin, 10 μM irinotecan) was “causes an induction in pAkt levels” and the “induction of apoptosis when combined with doxorubicin” value (Ovcar3 cells; Ovcar3, 10 μM doxorubicin, 10 μM Compound B or 10 nM rapamycin, 48 hrs) was “not”. For the same molecule, the “induction of apoptosis when combined with irinotecan” value (Ovcar3 cells; Ovcar3, 10 μM irinotecan, 10 μM Compound B or 10 nM rapamycin, 48 hrs) was “not”, the “effect on chemotherapy-induced apoptosis” value (Ovcar3 cells; Ovcar-3, combination with paclitaxel, cisplatin, irinotecan, doxorubicin, gemcitabine, 5-FU or melphalan) was “inhibited chemotherapy-induced apoptosis” and the “effect on pAkt-S473, single agent” value ([4]; 10 nM rapamycin, 20 μM Compound A, 30 μM cisplatin) was “promotes an increase in pAkt-S473”. The “effect on the increase in Akt phosphorylation provoked by cisplatin” value ([4]; combination with 30 μM cisplatin) was “not”, the “tumor cells in which pAKT levels are reduced” value (pAkt) was “only reduces pAKT in a small number of tumor cells” and the “induction of apoptosis in combination with gemcitabine” value [5] was “less induction of apoptosis than gemcitabine alone”. The “induction in apoptosis, single agent” value (MDA-MB-231 cells; MDA-MB-231, 24 hours) was “no significant induction in apoptosis” and the “induction in apoptosis, co-treatment with doxorubicin” value (MDA-MB-231 cells; MDA-MB-231, combination with 1 μM doxorubicin, 24 hours) was “no effect over that with doxorubicin alone”.
